Laboratory results taken from paper PMC8445926.
These are yes or no findings as the source states them, for the method shown. In cells and extracts the contact can be indirect. Some results given as binding are weak or reduced against the parent protein; the word gives no strength.

By UniProt entry, the sequences of proteins in these tests, tags left out.
UniProt Q64259: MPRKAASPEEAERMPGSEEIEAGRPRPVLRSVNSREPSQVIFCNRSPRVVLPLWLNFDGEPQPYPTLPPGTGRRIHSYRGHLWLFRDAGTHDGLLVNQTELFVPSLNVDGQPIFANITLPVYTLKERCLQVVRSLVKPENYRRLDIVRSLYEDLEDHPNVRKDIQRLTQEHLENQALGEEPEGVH
UniProt O35800: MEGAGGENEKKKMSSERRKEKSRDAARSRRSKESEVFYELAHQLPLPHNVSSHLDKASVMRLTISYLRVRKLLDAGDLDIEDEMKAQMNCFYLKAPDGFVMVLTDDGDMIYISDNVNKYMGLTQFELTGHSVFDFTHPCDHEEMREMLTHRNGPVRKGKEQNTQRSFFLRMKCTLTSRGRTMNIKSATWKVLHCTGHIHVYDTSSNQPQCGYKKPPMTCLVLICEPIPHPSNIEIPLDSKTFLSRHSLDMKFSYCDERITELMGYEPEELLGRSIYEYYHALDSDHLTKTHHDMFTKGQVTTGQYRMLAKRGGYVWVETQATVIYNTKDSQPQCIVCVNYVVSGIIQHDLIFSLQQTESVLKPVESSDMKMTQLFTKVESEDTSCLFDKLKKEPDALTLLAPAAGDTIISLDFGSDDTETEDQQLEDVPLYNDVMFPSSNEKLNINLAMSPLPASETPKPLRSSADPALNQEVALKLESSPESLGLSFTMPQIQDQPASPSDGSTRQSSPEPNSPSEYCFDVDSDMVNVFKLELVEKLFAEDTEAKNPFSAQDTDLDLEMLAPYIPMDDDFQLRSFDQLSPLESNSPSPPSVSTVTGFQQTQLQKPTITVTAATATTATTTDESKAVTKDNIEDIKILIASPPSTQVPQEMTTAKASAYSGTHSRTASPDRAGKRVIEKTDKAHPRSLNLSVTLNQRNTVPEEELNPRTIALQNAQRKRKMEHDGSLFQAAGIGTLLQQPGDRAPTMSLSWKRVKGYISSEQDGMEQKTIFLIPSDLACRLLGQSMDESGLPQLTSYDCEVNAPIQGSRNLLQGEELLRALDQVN

Legend:
[1] = target: T1, Insulin-like growth factor binding protein-1 (UniProt P21743); assay: co-IP; H9c2 cells overexpressing HIF-1α (pcDNA3.1) and IGFBP-1 (adenovirus) for 48 h, normoxia; lysates precipitated with anti-IGFBP-1 antibody on Dynabeads (1 h, 4 °C), immunoblot for PHD2 and VHL
T1 sequence: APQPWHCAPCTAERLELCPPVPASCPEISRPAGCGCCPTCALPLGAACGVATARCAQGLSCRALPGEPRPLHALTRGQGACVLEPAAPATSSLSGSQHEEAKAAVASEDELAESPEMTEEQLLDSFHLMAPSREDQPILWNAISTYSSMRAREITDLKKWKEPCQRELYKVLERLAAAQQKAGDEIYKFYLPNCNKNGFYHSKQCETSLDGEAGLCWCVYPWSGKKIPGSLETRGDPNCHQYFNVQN

[2] = target: von Hippel–Lindau (VHL) protein (rat (endogenous in H9c2)) (UniProt Q64259); assay: co-IP; H9c2 cells overexpressing the same level of HIF-1α and different levels of IGFBP-1, normoxia; co-immunoprecipitation with anti-IGFBP-1, anti-VHL and anti-HIF-1α antibodies (Supplementary Fig. 3a, b)
[3] = target: T1, Insulin-like growth factor binding protein-1; assay: as above

binding [1] | binding [2] | binding [3] | Substance
no binding | binds | – | HIF-1α (from UniProt O35800 1-825)
binds | – | binds | von Hippel–Lindau (VHL) protein (from UniProt Q64259 1-185)
